{"source": "PubChem BioAssay AID1688", "about": "(National Center for Advancing Translational Sciences (NCATS), 2009)", "note": "Among all 220,000 compounds or so, about 2,400 (1.1%) were called active. Inconclusive means that the source gave no clear call. Such entries were picked first, then a sample of the others. The call rests on the fitted dose curve; in most records, active means well fitted inhibition curve with a large enough effect; inconclusive means small, poorly fitted or top-dose-only effect, or effect the other way; inactive means no such curve, though single readings can be large or run the other way. Potencies beside an inconclusive call are fits to weak or partial responses and may not hold up. On the % scale 0 is the no-effect control and ±100 the full control effect; potency means the concentration at half of the fitted maximal effect."}
{"experiment": "qHTS Multiplex Assay to Identify Dual Action Probes in a Cell Model of Huntington: Aggregate Formation (GFP); further: nearly all actives have a fitted effect of over 60% in size", "conditions": "PC12 HttQ103-GFP aggregates, Acumen cytometry, 40 h; activity change, negative = inhibition: at 46.1 µM (top of the series) unless noted", "in_short": "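PC12 cells with ecdysone-inducible HTT exon1 Q103-GFP, induced by 100 nM tebufenozide, given compounds in a concentration series. GFP aggregates (1–25 um, 6 SD above background) counted in lysates by laser-scanning cytometry, 488 nm excitation.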"}
{"smiles": "COc1cccc(C(=O)Nc2ccc3nc(N4CCN(c5ncccn5)CC4)cc(C)c3c2)c1OC", "Potency": "inconclusive: 22.4 µM [inhibitor, single point]"}
{"smiles": "CC1NC2(C(=O)N(Cc3ccccc3)c3ccccc32)C2C(=O)N(c3ccccc3)C(=O)C12", "note": "(configuration not stated)", "Potency": "inconclusive: 5.62 µM [activator, single point]"}
{"smiles": "CCOc1ccc(C(=O)NC(=S)Nc2ccccn2)cc1[N+](=O)[O-]", "Potency": "inconclusive: 35.5 µM [inhibitor, single point]"}
{"smiles": "Cc1nc(S(=O)(=O)N(C)c2ccccc2)c(C#N)c(C)c1Cl", "Potency": "inconclusive: 14.1 µM [inhibitor, single point]"}
{"smiles": "Cc1cc(NC(=O)/C=C/C(=O)N(c2ccccc2C)C(C(=O)NC2CCCC2)c2ccc(F)cc2)no1", "note": "(configuration not stated)", "Potency": "inconclusive: 35.5 µM [inhibitor, single point]"}
{"smiles": "O=C(NCSc1ccncn1)c1ccccc1", "Potency": "inconclusive: 6.31 µM [inhibitor, single point]"}
{"smiles": "COc1cc2[nH]c(=S)n(CC3CCCO3)c(=O)c2cc1OC", "note": "(configuration not stated)", "Potency": "inactive"}
{"smiles": "COc1ccc2cc3c(N)nn(C(=O)c4cccc([N+](=O)[O-])c4)c3nc2c1", "Potency": "active: 3.55 µM"}
{"smiles": "Cc1nn(-c2ccccc2)c(Cl)c1/C=N/NC(=O)CNC(=O)c1ccccc1Cl", "Potency": "inconclusive: 31.6 µM [inhibitor, single point]"}
{"smiles": "Brc1ccccc1C1=Nn2c(nnc2-c2ccco2)SC1", "activity change, negative = inhibition": "inactive: -10.7% [at 9.22 µM]"}
{"smiles": "Cc1ccc2[nH]c(=O)c(CN(C(=O)c3cccs3)c3ccccc3)cc2c1", "Potency": "inactive"}
{"smiles": "O=c1c2c(nc3cc(-c4ccccc4)[nH]n13)CCS2", "Potency": "inconclusive: 0.562 µM [activator, full curve, poor fit]"}
{"smiles": "COC(=O)c1cn(C)c2ccc(S(=O)(=O)N3CCOCC3)cc2c1=O", "Potency": "inactive"}
{"smiles": "Cc1ccc(-c2c(C(=O)NCc3ccc(F)cc3)oc(=O)c3ccccc23)cc1", "Potency": "inactive"}
{"smiles": "Cc1ccc(Cn2c(/C=C/c3ccco3)nc3ccccc32)cc1", "Potency": "inconclusive: 5.62 µM [inhibitor, single point]"}
{"smiles": "CCOC(=O)C1=C(C)NC(C)=C(C(=O)OCC)C1c1ccccc1C=CC(=O)OC(C)(C)C", "Potency": "inconclusive: 31.6 µM [inhibitor, single point]"}
{"smiles": "NC(=O)COc1ccc(=O)n(-c2ccccc2)n1", "Potency": "inactive"}
{"smiles": "O=C(O)c1[nH]c2ccccc2c1NS(=O)(=O)Cc1ccccc1", "Potency": "inconclusive: 5.62 µM [inhibitor, single point]"}
{"smiles": "CCOC(=O)c1sc(N(Cc2ccccc2)C(=O)CSc2nnc(C3CC3)n2N)nc1C", "Potency": "inconclusive: 5.62 µM [inhibitor, single point]"}
{"smiles": "CCC1(C)CC(CCNS(=O)(=O)c2ccc(C)cc2)(c2ccc(C)cc2)CCO1", "note": "(configuration not stated)", "Potency": "inconclusive: 6.31 µM [inhibitor, full curve]"}
{"smiles": "O=C(CSc1nc(SCC(=O)NCc2ccccc2)n(-c2ccccc2)n1)NCc1ccccc1", "Potency": "inactive"}
{"smiles": "CCCNS(=O)(=O)c1ccc(OCC(=O)OC)cc1", "Potency": "inactive"}
{"smiles": "Cc1cc(C)cc(N(C(=O)c2nsc(Cl)c2Cl)C(C(=O)NC2CCCC2)c2ccc(O)cc2)c1", "note": "(configuration not stated)", "Potency": "inconclusive: 35.5 µM [inhibitor, single point]"}
{"smiles": "CN(C)c1ccc(C(=O)C(O)c2ccc(C(C)(C)C)cc2)cc1", "note": "(configuration not stated)", "Potency": "inactive"}
{"smiles": "CCN1CCN(CCNC(=O)C2CCCN(Cc3nc(-c4cccc(Cl)c4)oc3C)C2)CC1", "note": "(configuration not stated)", "Potency": "inconclusive: 10 µM [inhibitor, partial curve]"}
{"smiles": "CC(=O)c1ccc(OCC(O)CN2CCN(CCN3C(=O)c4cccc5cccc(c45)C3=O)CC2)cc1", "note": "(configuration not stated)", "Potency": "inconclusive: 25.1 µM [inhibitor, single point]"}
{"smiles": "O=C(OCC(=O)N1CCCC1)c1ccccc1OCc1ccccc1", "Potency": "inactive"}
{"smiles": "COC(=O)COc1ccc(S(=O)(=O)Nc2ccc(C(N)=O)cc2)cc1C", "Potency": "inconclusive: 35.5 µM [activator, single point]"}
{"smiles": "CC1=C(C(=O)OCc2ccccc2)C(c2cccs2)NC(=O)N1CCCC(=O)O", "note": "(configuration not stated)", "Potency": "inconclusive: 20 µM [activator, partial curve, poor fit]"}
{"smiles": "O=[N+]([O-])c1cccc(CSc2nc3ccccc3[nH]2)c1", "Potency": "inconclusive: 3.55 µM [activator, single point]"}
{"smiles": "CC(C)CNC(=S)NNC(=O)c1csc2c1CCC(C)C2", "note": "(configuration not stated)", "Potency": "inconclusive: 25.1 µM [inhibitor, single point]"}
{"smiles": "Cc1ccc(Cn2nnc3c(=O)[nH]c(C4CCN(S(=O)(=O)c5ccc(F)cc5)CC4)nc32)cc1", "Potency": "inconclusive: 35.5 µM [inhibitor, single point]"}
{"smiles": "O=C1c2ccccc2-c2cccc(NS(=O)(=O)c3ccc(C(F)(F)F)cc3)c21", "Potency": "inconclusive: 22.4 µM [inhibitor, single point]"}
{"smiles": "CC(=O)c1ccc(NC(=O)N2C3CCC2CC(O)(c2cccnc2)C3)cc1", "note": "(configuration not stated)", "Potency": "inconclusive: 25.1 µM [inhibitor, single point]"}
{"smiles": "CC(=O)Nc1nc(C)c(-c2csc(Nc3ccc(O)cc3)n2)s1", "Potency": "inconclusive: 3.98 µM [activator, partial curve]"}
{"smiles": "CCNC(=O)/C(C#N)=C/c1c(N(Cc2ccccc2)Cc2ccccc2)nc2ccccn2c1=O", "Potency": "inconclusive: 35.5 µM [inhibitor, single point]"}
{"smiles": "c1ccc(-c2nc(N3CCN(c4ccccc4)CC3)nc(-n3ccnc3)n2)cc1", "Potency": "active: 14.1 µM"}
{"smiles": "CN1/C(=C\\C(=O)CSc2nnc(NCc3ccccc3)s2)C(C)(C)c2ccccc21", "Potency": "inconclusive: 11.2 µM [inhibitor, partial curve]"}
{"smiles": "Cc1ccccc1Cn1ccc(=NCc2ccccc2)cc1", "Potency": "active: 17.8 µM"}
{"smiles": "Cc1cc(OC(F)F)ccc1NC(=O)Nc1ccc([N+](=O)[O-])cc1", "Potency": "inconclusive: 22.4 µM [inhibitor, single point]"}
{"smiles": "COc1ccccc1Nc1ncc(-c2cccs2)s1", "Potency": "inconclusive: 3.55 µM [activator, single point]"}
{"smiles": "COCC(C)N=C1NN=C(c2cc(C)n(Cc3ccccc3Cl)c2C)CS1", "note": "(configuration not stated)", "Potency": "inconclusive: 31.6 µM [inhibitor, single point]"}
{"smiles": "CCOc1cc(NC(=S)Nc2cccc(OC)c2)c(OCC)cc1NC(=O)C(C)C", "Potency": "inconclusive: 1 µM [inhibitor, single point]"}
{"smiles": "O=c1ccsn1Cc1ccccc1", "Potency": "inconclusive: 35.5 µM [inhibitor, single point]"}
{"smiles": "COc1ccccc1OCCSc1nnnn1-c1ccc(C)cc1", "Potency": "inactive"}
{"smiles": "COc1ccccc1CCNC(=O)CSc1nnc2ccc(-c3cccnc3)nn12", "Potency": "inconclusive: 4.47 µM [activator, full curve, poor fit]"}
{"smiles": "CNC(=S)N(CCc1ccc(OC)c(OC)c1)Cc1cc2c(C)cc(C)cc2[nH]c1=O", "Potency": "inconclusive: 0.891 µM [activator, full curve, poor fit]"}
{"smiles": "O=c1c2ccccc2nnn1CSc1nc2sc3c(c2c(=O)n1CC1CCCO1)CCC3", "note": "(configuration not stated)", "Potency": "inconclusive: 1.58 µM [activator, partial curve]"}
{"smiles": "Cc1cc(C)c2nc(SCC(=O)Nc3ccc(S(=O)(=O)N4CCCC4)cc3)c(C)cc2c1", "Potency": "inconclusive: 0.631 µM [activator, full curve, poor fit]"}
{"smiles": "COc1cccc2cc(-c3nnc(SCC(=O)NCCc4ccccc4)n3C)oc12", "Potency": "inconclusive: 22.4 µM [activator, partial curve]"}
{"smiles": "CCOc1ccc(C(=O)NC(=S)Nc2ccc(N3CCCCC3)cc2)cc1[N+](=O)[O-]", "Potency": "inactive"}
{"smiles": "COC(=O)c1cnc(SCc2ccc([N+](=O)[O-])cc2)n1C", "activity change, negative = inhibition": "inactive: -9.64% [at 9.22 µM]"}
{"smiles": "COc1cc(NC(=O)c2cc3c(C)nc4ccccc4c3o2)cc(OC)c1OC", "Potency": "inconclusive: 28.2 µM [inhibitor, single point]"}
{"smiles": "Clc1ccc(CONc2ncnc3nonc23)c(Cl)c1", "Potency": "inconclusive: 25.1 µM [inhibitor, single point]"}
{"smiles": "CCOc1ccc(NC(=O)N(CCC(C)C)C(C)c2ccco2)cc1", "note": "(configuration not stated)", "Potency": "inconclusive: 25.1 µM [inhibitor, single point]"}
{"smiles": "CC(CCc1ccccc1)NS(=O)(=O)c1ccccc1", "note": "(configuration not stated)", "Potency": "inactive"}
{"smiles": "COc1ccc(OCc2cccc(C(=O)Nn3cc([N+](=O)[O-])cn3)c2)cc1", "Potency": "inactive"}
{"smiles": "CC1=NN(c2ccccc2)C(=O)/C1=C\\c1cc(C)n(C)c1C", "activity change, negative = inhibition": "inactive: 6.3% [at 9.22 µM]"}
{"smiles": "COC(=O)c1cn(Cc2ccccn2)c(=O)c2ccccc12", "Potency": "inactive"}
{"smiles": "CC(C)c1nc2oc3c(NCC4CCCO4)ncnc3c2c2c1CCC2", "note": "(configuration not stated)", "Potency": "inconclusive: 1.12 µM [activator, full curve, poor fit]"}
{"smiles": "CC(=O)c1cc(NC(=O)c2ccccc2)c(=O)oc1C", "Potency": "inconclusive: 35.5 µM [inhibitor, single point]"}
{"smiles": "CCn1c(CNc2ccc(OC)cc2)nnc1SCC(=O)c1ccc(OC)cc1", "Potency": "inconclusive: 35.5 µM [activator, single point]"}
{"smiles": "CN1C[C@@H]2C(c3ccc(C(F)(F)F)cc3)C3(c4ccc(C#N)cc4)CC2(C3)[C@H]1c1ccccc1", "note": "(some centres not stated)", "Potency": "inconclusive: 0.501 µM [inhibitor, full curve, poor fit]"}
{"smiles": "O=C(OCn1ncc(Cl)c(Cl)c1=O)c1ccc(C(F)(F)F)cc1", "Potency": "inconclusive: 20 µM [inhibitor, single point]"}
{"smiles": "CCNC(=S)N(CCc1c(C)[nH]c2ccc(Cl)cc12)Cc1ccco1", "Potency": "inconclusive: 25.1 µM [inhibitor, single point]"}
{"smiles": "Cc1ccc(N=Nc2ccc(O)c(/C=N\\NC(=O)c3ccc(N)cc3)c2)cc1C", "Potency": "inconclusive: 2 µM [inhibitor, partial curve]"}
{"smiles": "CCCNC(=O)Cn1c(=O)/c(=C\\c2ccc(-c3ccc([N+](=O)[O-])cc3)o2)s/c1=C\\C(=O)C(C)(C)C", "Potency": "active: 14.1 µM"}
